ChEMBL document CHEMBL1268908, “Design, synthesis, radiolabeling, and in vivo evaluation of carbon-11 labeled N-[2-[4-(3-cyanopyridin-2-yl)piperazin-1-yl]ethyl]-3-methoxybenzamide, a potential positron emission tomography tracer for the dopamine D(4) receptors” (J Med Chem, 2010)
This continues a long series; more values of the same kind are listed elsewhere.

Experiments:
Format in all cases: ADME, organism-based, Macaca mulatta
[1] = Biodistribution in rhesus monkey entorhinal cortex at 150.3 MBq, iv after 8.5 mins; details: in vivo
[2] = Biodistribution in rhesus monkey occipital lobe at 150.3 MBq, iv after 0.25 mins; details: in vivo, 15 s
[3] = Biodistribution in rhesus monkey entorhinal cortex at 150.3 MBq, iv after 31 mins; details: in vivo
[4] = Biodistribution in rhesus monkey entorhinal cortex at 150.3 MBq, iv after 82.5 mins; details: in vivo, 1.375 h
[5] = Biodistribution in rhesus monkey entorhinal cortex at 150.3 MBq, iv after 37 mins; details: in vivo
[6] = Biodistribution in rhesus monkey entorhinal cortex at 150.3 MBq, iv after 5.5 mins; details: in vivo
[7] = Biodistribution in rhesus monkey occipital lobe at 150.3 MBq, iv after 15 mins; details: in vivo, 0.25 h
[8] = Biodistribution in rhesus monkey cerebellum at 150.3 MBq, iv after 7.5 mins; details: in vivo, 0.125 h
[9] = Biodistribution in rhesus monkey occipital lobe at 150.3 MBq, iv after 33 mins; details: in vivo, 0.55 h
[10] = Biodistribution in rhesus monkey retina at 150.3 MBq, iv after 0.75 mins; details: in vivo, 45 s
[11] = Biodistribution in rhesus monkey retina at 150.3 MBq, iv after 39 mins; details: in vivo, 0.65 h
[12] = Biodistribution in rhesus monkey retina at 150.3 MBq, iv after 27 mins; details: in vivo, 0.45 h
[13] = Biodistribution in rhesus monkey entorhinal cortex at 150.3 MBq, iv after 77.5 mins; details: in vivo
[14] = Biodistribution in rhesus monkey cerebellum at 150.3 MBq, iv after 87.5 mins; details: in vivo
[15] = Biodistribution in rhesus monkey cingulate cortex at 150.3 MBq, iv after 62.5 mins; details: in vivo
[16] = Biodistribution in rhesus monkey retina at 150.3 MBq, iv after 5.5 mins; details: in vivo
[17] = Biodistribution in rhesus monkey cingulate cortex at 150.3 MBq, iv after 1.75 mins; details: in vivo, 105 s
[18] = Biodistribution in rhesus monkey retina at 150.3 MBq, iv after 8.5 mins; details: in vivo
[19] = Biodistribution in rhesus monkey cingulate cortex at 150.3 MBq, iv after 52.5 mins; details: in vivo, 0.875 h
[20] = Biodistribution in rhesus monkey cerebellum at 150.3 MBq, iv after 19 mins; details: in vivo
[21] = Biodistribution in rhesus monkey entorhinal cortex at 150.3 MBq, iv after 3.5 mins; details: in vivo
[22] = Biodistribution in rhesus monkey entorhinal cortex at 150.3 MBq, iv after 72.5 mins; details: in vivo
[23] = Biodistribution in rhesus monkey occipital lobe at 150.3 MBq, iv after 47 mins; details: in vivo
[24] = Biodistribution in rhesus monkey cingulate cortex at 150.3 MBq, iv after 2.75 mins; details: in vivo, 165 s
[25] = Biodistribution in rhesus monkey cingulate cortex at 150.3 MBq, iv after 0.75 mins; details: in vivo, 45 s
[26] = Biodistribution in rhesus monkey cerebellum at 150.3 MBq, iv after 45 mins; details: in vivo, 0.75 h
[27] = Biodistribution in rhesus monkey occipital lobe at 150.3 MBq, iv after 45 mins; details: in vivo, 0.75 h
[28] = Biodistribution in rhesus monkey occipital lobe at 170.3 MBq, iv after 17 mins; details: in vivo
[29] = Biodistribution in rhesus monkey retina at 150.3 MBq, iv after 1.75 mins; details: in vivo, 105 s
[30] = Biodistribution in rhesus monkey cingulate cortex at 150.3 MBq, iv after 43 mins; details: in vivo
[31] = Biodistribution in rhesus monkey entorhinal cortex at 150.3 MBq, iv after 7.5 mins; details: in vivo, 0.125 h
[32] = Biodistribution in rhesus monkey cingulate cortex at 150.3 MBq, iv after 45 mins; details: in vivo, 0.75 h
[33] = Biodistribution in rhesus monkey entorhinal cortex at 150.3 MBq, iv after 1.25 mins; details: in vivo, 75 s
[34] = Biodistribution in rhesus monkey cingulate cortex at 150.3 MBq, iv after 87.5 mins; details: in vivo
[35] = Biodistribution in rhesus monkey cerebellum at 150.3 MBq, iv after 1.75 mins; details: in vivo, 105 s
[36] = Biodistribution in rhesus monkey retina at 150.3 MBq, iv after 21 mins; details: in vivo, 0.35 h
[37] = Biodistribution in rhesus monkey cingulate cortex at 150.3 MBq, iv after 9.5 mins; details: in vivo
[38] = Biodistribution in rhesus monkey occipital lobe at 150.3 MBq, iv after 62.5 mins; details: in vivo
[39] = Biodistribution in rhesus monkey retina at 150.3 MBq, iv after 4.5 mins; details: in vivo, 0.075 h
[40] = Biodistribution in rhesus monkey cerebellum at 150.3 MBq, iv after 9.5 mins; details: in vivo
[41] = Biodistribution in rhesus monkey entorhinal cortex at 150.3 MBq, iv after 0.25 mins; details: in vivo, 15 s
[42] = Biodistribution in rhesus monkey retina at 150.3 MBq, iv after 9.5 mins; details: in vivo
[43] = Biodistribution in rhesus monkey entorhinal cortex at 150.3 MBq, iv after 6.5 mins; details: in vivo
[44] = Biodistribution in rhesus monkey retina at 150.3 MBq, iv after 43 mins; details: in vivo
[45] = Biodistribution in rhesus monkey entorhinal cortex at 150.3 MBq, iv after 9.5 mins; details: in vivo
[46] = Biodistribution in rhesus monkey retina at 150.3 MBq, iv after 0.25 mins; details: in vivo, 15 s
[47] = Biodistribution in rhesus monkey occipital lobe at 150.3 MBq, iv after 19 mins; details: in vivo
[48] = Biodistribution in rhesus monkey cingulate cortex at 150.3 MBq, iv after 33 mins; details: in vivo, 0.55 h
[49] = Biodistribution in rhesus monkey occipital lobe at 150.3 MBq, iv after 57.5 mins; details: in vivo
[50] = Biodistribution in rhesus monkey occipital lobe at 150.3 MBq, iv after 72.5 mins; details: in vivo
[51] = Biodistribution in rhesus monkey cerebellum at 150.3 MBq, iv after 43 mins; details: in vivo
[52] = Biodistribution in rhesus monkey occipital lobe at 150.3 MBq, iv after 13 mins; details: in vivo
[53] = Biodistribution in rhesus monkey retina at 170.3 MBq, iv after 17 mins; details: in vivo
[54] = Biodistribution in rhesus monkey occipital lobe at 150.3 MBq, iv after 0.75 mins; details: in vivo, 45 s
[55] = Biodistribution in rhesus monkey occipital lobe at 150.3 MBq, iv after 25 mins; details: in vivo
[56] = Biodistribution in rhesus monkey entorhinal cortex at 150.3 MBq, iv after 43 mins; details: in vivo
[57] = Biodistribution in rhesus monkey retina at 150.3 MBq, iv after 49 mins; details: in vivo
[58] = Biodistribution in rhesus monkey cerebellum at 150.3 MBq, iv after 67.5 mins; details: in vivo, 1.125 h
[59] = Biodistribution in rhesus monkey occipital lobe at 150.3 MBq, iv after 21 mins; details: in vivo, 0.35 h
[60] = Biodistribution in rhesus monkey entorhinal cortex at 150.3 MBq, iv after 57.5 mins; details: in vivo
[61] = Biodistribution in rhesus monkey occipital lobe at 150.3 MBq, iv after 1.75 mins; details: in vivo, 105 s
[62] = Biodistribution in rhesus monkey occipital lobe at 150.3 MBq, iv after 7.5 mins; details: in vivo, 0.125 h
[63] = Biodistribution in rhesus monkey cingulate cortex at 150.3 MBq, iv after 35 mins; details: in vivo
[64] = Biodistribution in rhesus monkey cerebellum at 150.3 MBq, iv after 33 mins; details: in vivo, 0.55 h
[65] = Biodistribution in rhesus monkey occipital lobe at 150.3 MBq, iv after 35 mins; details: in vivo
[66] = Biodistribution in rhesus monkey cerebellum at 150.3 MBq, iv after 52.5 mins; details: in vivo, 0.875 h
[67] = Biodistribution in rhesus monkey retina at 150.3 MBq, iv after 31 mins; details: in vivo
[68] = Biodistribution in rhesus monkey retina at 150.3 MBq, iv after 1.25 mins; details: in vivo, 75 s
[69] = Biodistribution in rhesus monkey occipital lobe at 150.3 MBq, iv after 2.75 mins; details: in vivo, 165 s
[70] = Biodistribution in rhesus monkey entorhinal cortex at 150.3 MBq, iv after 11 mins; details: in vivo
[71] = Biodistribution in rhesus monkey retina at 150.3 MBq, iv after 67.5 mins; details: in vivo, 1.125 h
[72] = Biodistribution in rhesus monkey cerebellum at 150.3 MBq, iv after 82.5 mins; details: in vivo, 1.375 h

Drug uptake [1]: 27.02 kBq/ml
Drug uptake [2]: 39.79 kBq/ml
Drug uptake [3]: 14.86 kBq/ml
Drug uptake [4]: 9.189 kBq/ml
Drug uptake [5]: 13.27 kBq/ml
Drug uptake [6]: 35.22 kBq/ml
Drug uptake [7]: 17.93 kBq/ml
Drug uptake [8]: 28.6761 kBq/ml
Drug uptake [9]: 11.64 kBq/ml
Drug uptake [10]: 32.68 kBq/ml
Drug uptake [11]: 56.78 kBq/ml
Drug uptake [12]: 56.96 kBq/ml
Drug uptake [13]: 7.835 kBq/ml
Drug uptake [14]: 7.664 kBq/ml
Drug uptake [15]: 9.561 kBq/ml
Drug uptake [16]: 43.55 kBq/ml
Drug uptake [17]: 54.37 kBq/ml
Drug uptake [18]: 46.01 kBq/ml
Drug uptake [19]: 10.77 kBq/ml
Drug uptake [20]: 17.26 kBq/ml
Drug uptake [21]: 38.9 kBq/ml
Drug uptake [22]: 8.334 kBq/ml
Drug uptake [23]: 9.212 kBq/ml
Drug uptake [24]: 47.49 kBq/ml
Drug uptake [25]: 65.69 kBq/ml
Drug uptake [26]: 10.06 kBq/ml
Drug uptake [27]: 9.235 kBq/ml
Drug uptake [28]: 16.62 kBq/ml
Drug uptake [29]: 36.64 kBq/ml
Drug uptake [30]: 10.26 kBq/ml
Drug uptake [31]: 29.06 kBq/ml
Drug uptake [32]: 10.98 kBq/ml
Drug uptake [33]: 40.62 kBq/ml
Drug uptake [34]: 9.674 kBq/ml
Drug uptake [35]: 48.2238 kBq/ml
Drug uptake [36]: 54.93 kBq/ml
Drug uptake [37]: 27.2242 kBq/ml
Drug uptake [38]: 8.641 kBq/ml
Drug uptake [39]: 41.39 kBq/ml
Drug uptake [40]: 25.93 kBq/ml
Drug uptake [41]: 26.55 kBq/ml
Drug uptake [42]: 48.45 kBq/ml
Drug uptake [43]: 36.94 kBq/ml
Drug uptake [44]: 57.27 kBq/ml
Drug uptake [45]: 27.53 kBq/ml
Drug uptake [46]: 19.99 kBq/ml
Drug uptake [47]: 15.73 kBq/ml
Drug uptake [48]: 12.88 kBq/ml
Drug uptake [49]: 8.64 kBq/ml
Drug uptake [50]: 8.472 kBq/ml
Drug uptake [51]: 10.72 kBq/ml
Drug uptake [52]: 19.71 kBq/ml
Drug uptake [53]: 52.3201 kBq/ml
Drug uptake [54]: 61.53 kBq/ml
Drug uptake [55]: 14.67 kBq/ml
Drug uptake [56]: 10.13 kBq/ml
Drug uptake [57]: 55.93 kBq/ml
Drug uptake [58]: 8.418 kBq/ml
Drug uptake [59]: 15.93 kBq/ml
Drug uptake [60]: 8.599 kBq/ml
Drug uptake [61]: 51.02 kBq/ml
Drug uptake [62]: 26.71 kBq/ml
Drug uptake [63]: 12.76 kBq/ml
Drug uptake [64]: 12.73 kBq/ml
Drug uptake [65]: 10.85 kBq/ml
Drug uptake [66]: 9.47 kBq/ml
Drug uptake [67]: 57.45 kBq/ml
Drug uptake [68]: 35.23 kBq/ml
Drug uptake [69]: 40.68 kBq/ml
Drug uptake [70]: 24.2 kBq/ml
Drug uptake [71]: 52.23 kBq/ml
Drug uptake [72]: 8.2 kBq/ml
SMILES: [11CH3]Oc1cccc(C(=O)NCCN2CCN(c3ncccc3C#N)CC2)c1
